From publication PMC6300487

T1: SFB-tagged WWOX (WW domain-containing oxidoreductase) (human) (UniProt Q9NZC7)
T1 sequence: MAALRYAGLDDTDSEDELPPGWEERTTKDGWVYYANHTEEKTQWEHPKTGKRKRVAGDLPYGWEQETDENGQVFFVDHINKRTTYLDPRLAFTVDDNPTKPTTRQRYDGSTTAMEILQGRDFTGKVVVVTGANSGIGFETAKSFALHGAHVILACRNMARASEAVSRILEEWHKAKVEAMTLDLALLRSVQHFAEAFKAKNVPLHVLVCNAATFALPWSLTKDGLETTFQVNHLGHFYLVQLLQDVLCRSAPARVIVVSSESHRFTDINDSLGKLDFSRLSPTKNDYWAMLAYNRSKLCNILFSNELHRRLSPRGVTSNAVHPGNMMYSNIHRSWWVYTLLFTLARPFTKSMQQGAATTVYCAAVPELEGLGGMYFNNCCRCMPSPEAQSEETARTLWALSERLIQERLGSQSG


The binders below were run against T1, SFB-tagged WWOX (WW domain-containing oxidoreductase) (human) (assay: affinity purification with mass spectrometry; tandem affinity purification from lysate (NETN buffer) of HEK293T cells stably expressing C-terminally SFB-tagged WWOX: streptavidin beads, elution with 2 mg/ml biotin, then S protein beads; LC-MS/MS; two replicates; hits filtered by MUSE interaction score and CRAPome frequency).

binding | Binder
binds | Farnesyl-Diphosphate Farnesyltransferase 1 (protein, UniProt P37268 1-417) MEFVKCLGHPEEFYNLVRFRIGGKRKVMPKMDQDSLSSSLKTCYKYLNQTSRSFAAVIQALDGEMRNAVCIFYLVLRALDTLEDDMTISVEKKVPLLHNFHSFLYQPDWRFMESKEKDRQVLEDFPTISLEFRNLAEKYQTVIADICRRMGIGMAEFLDKHVTSEQEWDKYCHYVAGLVGIGLSRLFSASEFEDPLVGEDTERANSMGLFLQKTNIIRDYLEDQQGGREFWPQEVWSRYVKKLGDFAKPENIDLAVQCLNELITNALHHIPDVITYLSRLRNQSVFNFCAIPQVMAIATLAACYNNQQVFKGAVKIRKGQAVTLMMDATNMPAVKAIIYQYMEEIYHRIPDSDPSSSKTRQIISTIRTQNLPNCQLISRSHYSPIYLSFVMLLAALSWQYLTTLSQVTEDYVQTGEH
binds | Threonyl-tRNA Synthetase (protein, UniProt P26639 1-723) MFEEKASSPSGKMGGEEKPIGAGEEKQKEGGKKKNKEGSGDGGRAELNPWPEYIYTRLEMYNILKAEHDSILAEKAEKDSKPIKVTLPDGKQVDAESWKTTPYQIACGISQGLADNTVIAKVNNVVWDLDRPLEEDCTLELLKFEDEEAQAVYWHSSAHIMGEAMERVYGGCLCYGPPIENGFYYDMYLEEGGVSSNDFSSLEALCKKIIKEKQAFERLEVKKETLLAMFKYNKFKCRILNEKVNTPTTTVYRCGPLIDLCRGPHVRHTGKIKALKIHKNSSTYWEGKADMETLQRIYGISFPDPKMLKEWEKFQEEAKNRDHRKIGRDQELYFFHELSPGSCFFLPKGAYIYNALIEFIRSEYRKRGFQEVVTPNIFNSRLWMTSGHWQHYSENMFSFEVEKELFALKPMNCPGHCLMFDHRPRSWRELPLRLADFGVLHRNELSGALTGLTRVRRFQQDDAHIFCAMEQIEDEIKGCLDFLRTVYSVFGFSFKLNLSTRPEKFLGDIEVWDQAEKQLENSLNEFGEKWELNSGDGAFYGPKIDIQIKDAIGRYHQCATIQLDFQLPIRFNLTYVSHDGDDKKRPVIVHRAILGSVERMIAILTENYGGKWPFWLSPRQVMVVPVGPTCDEYAQKVRQQFHDAKFMADIDLDPGCTLNKKIRNAQLAQYNFILVVGEKEKISGTVNIRTRDNKVHGERTISETIERLQQLKEFRSKQAEEEF
binds | 3-hydroxyacyl-CoA dehydrogenase type-2 (protein, UniProt Q99714 1-261) MAAACRSVKGLVAVITGGASGLGLATAERLVGQGASAVLLDLPNSGGEAQAKKLGNNCVFAPADVTSEKDVQTALALAKGKFGRVDVAVNCAGIAVASKTYNLKKGQTHTLEDFQRVLDVNLMGTFNVIRLVAGEMGQNEPDQGGQRGVIINTASVAAFEGQVGQAAYSASKGGIVGMTLPIARDLAPIGIRVMTIAPGLFGTPLLTSLPEKVCNFLASQVPFPSRLGDPAEYAHLVQAIIENPFLNGEVIRLDGAIRMQP
binds | dihydrolipoamide dehydrogenase (PDC component E3) (protein, UniProt P09622 36-509) ADQPIDADVTVIGSGPGGYVAAIKAAQLGFKTVCIEKNETLGGTCLNVGCIPSKALLNNSHYYHMAHGKDFASRGIEMSEVRLNLDKMMEQKSTAVKALTGGIAHLFKQNKVVHVNGYGKITGKNQVTATKADGGTQVIDTKNILIATGSEVTPFPGITIDEDTIVSSTGALSLKKVPEKMVVIGAGVIGVELGSVWQRLGADVTAVEFLGHVGGVGIDMEISKNFQRILQKQGFKFKLNTKVTGATKKSDGKIDVSIEAASGGKAEVITCDVLLVCIGRRPFTKNLGLEELGIELDPRGRIPVNTRFQTKIPNIYAIGDVVAGPMLAHKAEDEGIICVEGMAGGAVHIDYNCVPSVIYTHPEVAWVGKSEEQLKEEGIEYKVGKFPFAANSRAKTNADTDGMVKILGQKSTDRVLGAHILGPGAGEMVNEAALALEYGASCEDIARVCHAHPTLSEAFREANLAASFGKSINF
binds | PDHB subunit of pyruvate dehydrogenase (PDC component E1) (protein, UniProt P11177 31-359) LQVTVRDAINQGMDEELERDEKVFLLGEEVAQYDGAYKVSRGLWKKYGDKRIIDTPISEMGFAGIAVGAAMAGLRPICEFMTFNFSMQAIDQVINSAAKTYYMSGGLQPVPIVFRGPNGASAGVAAQHSQCFAAWYGHCPGLKVVSPWNSEDAKGLIKSAIRDNNPVVVLENELMYGVPFEFPPEAQSKDFLIPIGKAKIERQGTHITVVSHSRPVGHCLEAAAVLSKEGVECEVINMRTIRPMDMETIEASVMKTNHLVTVEGGWPQFGVGAEICARIMEGPAFNFLDAPAVRVTGADVPMPYAKILEDNSIPQVKDIIFAIKKTLNI
binds | HIRA-interacting protein 3 (protein, UniProt Q9BW71 1-556) MAREKEMQEFTRSFFRGRPDLSTLTHSIVRRRYLAHSGRSHLEPEEKQALKRLVEEELLKMQVDEAASREDKLDLTKKGKRPPTPCSDPERKRFRFNSESESGSEASSPDYFGPPAKNGVAAEVSPAKEENPRRASKAVEESSDEERQRDLPAQRGEESSEEEEKGYKGKTRKKPVVKKQAPGKASVSRKQAREESEESEAEPVQRTAKKVEGNKGTKSLKESEQESEEEILAQKKEQREEEVEEEEKEEDEEKGDWKPRTRSNGRRKSAREERSCKQKSQAKRLLGDSDSEEEQKEAASSGDDSGRDREPPVQRKSEDRTQLKGGKRLSGSSEDEEDSGKGEPTAKGSRKMARLGSTSGEESDLEREVSDSEAGGGPQGERKNRSSKKSSRKGRTRSSSSSSDGSPEAKGGKAGSGRRGEDHPAVMRLKRYIRACGAHRNYKKLLGSCCSHKERLSILRAELEALGMKGTPSLGKCRALKEQREEAAEVASLDVANIISGSGRPRRRTAWNPLGEAAPPGELYRRTLDSDEERPRPAPPDWSHMRGIISSDGESN
binds | Rap guanine nucleotide exchange factor 2 (protein, UniProt Q9Y4G8 1-1499) MKPLAIPANHGVMGQQEKHSLPADFTKLHLTDSLHPQVTHVSSSHSGCSITSDSGSSSLSDIYQATESEAGDMDLSGLPETAVDSEDDDDEEDIERASDPLMSRDIVRDCLEKDPIDRTDDDIEQLLEFMHQLPAFANMTMSVRRELCAVMVFAVVERAGTIVLNDGEELDSWSVILNGSVEVTYPDGKAEILCMGNSFGVSPTMDKEYMKGVMRTKVDDCQFVCIAQQDYCRILNQVEKNMQKVEEEGEIVMVKEHRELDRTGTRKGHIVIKGTSERLTMHLVEEHSVVDPTFIEDFLLTYRTFLSSPMEVGKKLLEWFNDPSLRDKVTRVVLLWVNNHFNDFEGDPAMTRFLEEFENNLEREKMGGHLRLLNIACAAKAKRRLMTLTKPSREAPLPFILLGGSEKGFGIFVDSVDSGSKATEAGLKRGDQILEVNGQNFENIQLSKAMEILRNNTHLSITVKTNLFVFKELLTRLSEEKRNGAPHLPKIGDIKKASRYSIPDLAVDVEQVIGLEKVNKKSKANTVGGRNKLKKILDKTRISILPQKPYNDIGIGQSQDDSIVGLRQTKHIPTALPVSGTLSSSNPDLLQSHHRILDFSATPDLPDQVLRVFKADQQSRYIMISKDTTAKEVVIQAIREFAVTATPDQYSLCEVSVTPEGVIKQRRLPDQLSKLADRIQLSGRYYLKNNMETETLCSDEDAQELLRESQISLLQLSTVEVATQLSMRNFELFRNIEPTEYIDDLFKLRSKTSCANLKRFEEVINQETFWVASEILRETNQLKRMKIIKHFIKIALHCRECKNFNSMFAIISGLNLAPVARLRTTWEKLPNKYEKLFQDLQDLFDPSRNMAKYRNVLNSQNLQPPIIPLFPVIKKDLTFLHEGNDSKVDGLVNFEKLRMIAKEIRHVGRMASVNMDPALMFRTRKKKWRSLGSLSQGSTNATVLDVAQTGGHKKRVRRSSFLNAKKLYEDAQMARKVKQYLSNLELEMDEESLQTLSLQCEPATNTLPKNPGDKKPVKSETSPVAPRAGSQQKAQSLPQPQQQPPPAHKINQGLQVPAVSLYPSRKKVPVKDLPPFGINSPQALKKILSLSEEGSLERHKKQAEDTISNASSQLSSPPTSPQSSPRKGYTLAPSGTVDNFSDSGHSEISSRSSIVSNSSFDSVPVSLHDERRQRHSVSIVETNLGMGRMERRTMIEPDQYSLGSYAPMSEGRGLYATATVISSPSTEELSQDQGDRASLDAADSGRGSWTSCSSGSHDNIQTIQHQRSWETLPFGHTHFDYSGDPAGLWASSSHMDQIMFSDHSTKYNRQNQSRESLEQAQSRASWASSTGYWGEDSEGDTGTIKRRGGKDVSIEAESSSLTSVTTEETKPVPMPAHIAVASSTTKGLIARKEGRYREPPPTPPGYIGIPITDFPEGHSHPARKPPDYNVALQRSRMVARSSDTAGPSSVQQPHGHPTSSRPVNKPQWHKPNESDPRLAPYQSQGFSTEEDEDEQVSAV
binds | dihydrolipoamide acetyltransferase (PDC component E2) (protein, UniProt P10515 87-647) SLPPHQKVPLPSLSPTMQAGTIARWEKKEGDKINEGDLIAEVETDKATVGFESLEECYMAKILVAEGTRDVPIGAIICITVGKPEDIEAFKNYTLDSSAAPTPQAAPAPTPAATASPPTPSAQAPGSSYPPHMQVLLPALSPTMTMGTVQRWEKKVGEKLSEGDLLAEIETDKATIGFEVQEEGYLAKILVPEGTRDVPLGTPLCIIVEKEADISAFADYRPTEVTDLKPQVPPPTPPPVAAVPPTPQPLAPTPSAPCPATPAGPKGRVFVSPLAKKLAVEKGIDLTQVKGTGPDGRITKKDIDSFVPSKVAPAPAAVVPPTGPGMAPVPTGVFTDIPISNIRRVIAQRLMQSKQTIPHYYLSIDVNMGEVLLVRKELNKILEGRSKISVNDFIIKASALACLKVPEANSSWMDTVIRQNHVVDVSVAVSTPAGLITPIVFNAHIKGVETIANDVVSLATKAREGKLQPHEFQGGTFTISNLGMFGIKNFSAIINPPQACILAIGASEDKLVPADNEKGFDVASMMSVTLSCDHRVVDGAVGAQWLAEFRKYLEKPITMLL

Results are given in words; binding and its absence hold for the method and conditions named. In cells and extracts the contact can be indirect. A yes stands for co-enrichment or nearness to the bait. Other partners may have been found. Sequences can lack the tags named with a protein.
